Among the data in publication PMC10281804, “The structural basis of the talin–KANK1 interaction that coordinates the actin and microtubule cytoskeletons at focal adhesions” (Open Biology, 2023) are binding values, retold here.

Amino acid sequences for entries named in this document (tags omitted). Residues count along the entry.
UniProt P26039, residues 1359-1659: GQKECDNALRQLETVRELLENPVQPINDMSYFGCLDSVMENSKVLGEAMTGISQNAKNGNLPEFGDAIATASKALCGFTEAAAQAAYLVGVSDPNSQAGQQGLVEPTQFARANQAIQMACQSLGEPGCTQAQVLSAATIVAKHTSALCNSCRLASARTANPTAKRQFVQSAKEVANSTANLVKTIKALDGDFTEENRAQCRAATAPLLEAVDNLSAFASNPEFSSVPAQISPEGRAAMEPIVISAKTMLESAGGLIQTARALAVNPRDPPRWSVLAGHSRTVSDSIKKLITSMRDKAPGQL

The target of this experiment is Mouse talin-1 R7R8 (mouse) (UniProt P26039). Put plainly: condition: 2:1 molar excess of peptide over 400 µM R7R8; NMR titration; 1H,15N HSQC of 400 µM 15N-labelled R7R8 with a 2:1 molar excess of peptide; 298 K, 20 mM sodium phosphate pH 6.5, 50 mM NaCl, 3 mM β-mercaptoethanol; both purified.

Results are given in words; binding and its absence hold for the method and conditions named.

Regarding PYFVETPYGFQEDLDFVKYVDDIQKGNTIKK [KANK1 KN motif peptide L41E], the binding result was “no binding”.

In the case of PYFVETPYGFQLDLDEVKYVDDIQKGNTIKK [KANK1 KN motif peptide F45E], the binding entry is listed as “no binding”.
